PubChem BioAssay AID1159578 – Peter MacCallum Cancer Centre, 2015

- Purpose: 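Knock-downs that alter how fast lymphatic endothelial cells migrate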 (primary screen)
- Cells: human lymphatic endothelial cells
- Reagents: siRNA pool against human genes, 40 nM
- Duration: 48 h after transfection
- Detection: 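Cells stained with dye and imaged after a scratch; covered wound area and nuclei counted, duplicates averaged, migration set against mock wells and turned into a robust z-score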
- Reading the numbers: migration robust z-score: higher = faster migration into the scratch; nuclei per well: higher = more cells in the well
- Rule for the call: 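Migration changed when robust z exceeds 2 or falls below -2 and mean nuclei number is at least 3300; otherwise not called changed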
- Calls: active = migration changed; inactive = no migration change, or too few cells
In all, the deposit lists about 18,000 reagents; shown is a part drawn at random. About 1,030 of all reagents (5.7%) were called active. 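Inactive calls also include pools with fewer than 3300 nuclei, whose migration was not assessed.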 Raw values are not corrected between plates. Unmarked entries are inactive. Not all columns of the deposit are shown.

KRTAP5-10 (keratin associated protein 5-10)
- migration robust z-score: 1.21
- migration class with cell-count check: migration z between -2 and 2; enough cells
- nuclei per well, duplicate mean: 6652

TTC14 (tetratricopeptide repeat domain 14)
- migration robust z-score: 0.56
- migration class with cell-count check: migration z between -2 and 2; enough cells
- nuclei per well, duplicate mean: 6027

ANKRD33 (ankyrin repeat domain 33)
- migration robust z-score: 0.2
- migration class with cell-count check: migration z between -2 and 2; enough cells
- nuclei per well, duplicate mean: 6162

RMP64 (ribonuclease MRP subunit p64)
- migration robust z-score: -0.56
- migration class with cell-count check: migration z between -2 and 2; enough cells
- nuclei per well, duplicate mean: 3392

CPLANE2 (ciliogenesis and planar polarity effector complex subunit 2)
- migration robust z-score: 0.45
- migration class with cell-count check: migration z between -2 and 2; enough cells
- nuclei per well, duplicate mean: 6012

TCP1 (t-complex 1)
- migration robust z-score: -0.05
- migration class with cell-count check: migration z between -2 and 2; enough cells
- nuclei per well, duplicate mean: 5971

ANGPTL7 (angiopoietin like 7)
- migration robust z-score: -0.96
- migration class with cell-count check: migration z between -2 and 2; enough cells
- nuclei per well, duplicate mean: 4986

FAM216A (family with sequence similarity 216 member A)
- migration robust z-score: -0.06
- migration class with cell-count check: migration z between -2 and 2; enough cells
- nuclei per well, duplicate mean: 5186

ARHGAP15 (Rho GTPase activating protein 15)
- migration robust z-score: 0.58
- migration class with cell-count check: migration z between -2 and 2; enough cells
- nuclei per well, duplicate mean: 5748

Continued; the last 2 above are carried over.
FAM216A (family with sequence similarity 216 member A)
- migration robust z-score: -0.06
- migration class with cell-count check: migration z between -2 and 2; enough cells
- nuclei per well, duplicate mean: 5186

ARHGAP15 (Rho GTPase activating protein 15)
- migration robust z-score: 0.58
- migration class with cell-count check: migration z between -2 and 2; enough cells
- nuclei per well, duplicate mean: 5748

MSL2 (MSL complex subunit 2)
- migration robust z-score: -0.03
- migration class with cell-count check: migration z between -2 and 2; enough cells
- nuclei per well, duplicate mean: 5024

SNX9 (sorting nexin 9)
- migration robust z-score: -3.27
- migration class with cell-count check: under 3300 nuclei; migration not judged
- nuclei per well, duplicate mean: 3234

LMF1 (lipase maturation factor 1)
- migration robust z-score: -0.22
- migration class with cell-count check: migration z between -2 and 2; enough cells
- nuclei per well, duplicate mean: 5252

SYNGR2 (synaptogyrin 2)
- migration robust z-score: -2.46 (active)
- migration class with cell-count check: migration z below -2; enough cells
- nuclei per well, duplicate mean: 5636

H4C2 (H4 clustered histone 2)
- migration robust z-score: 0.18
- migration class with cell-count check: migration z between -2 and 2; enough cells
- nuclei per well, duplicate mean: 6136
